# Source: PubChem BioAssay AID1347075 (National Center for Advancing Translational Sciences (NCATS), 2019)
# Among all 400,000 compounds or so, about 5,500 (1.4%) were called active. Inconclusive results, whose numbers are uncertain, are shown with a selection of clear calls. Calls come from the whole dose curve; as a rule, active = well fitted cell-killing curve with a large enough effect; inconclusive = small, poorly fitted or top-dose-only effect, or effect the other way; inactive = flat fitted curve, though single readings scatter. A potency beside an inconclusive call is a rough fit, not a confirmed value.
# Test: qHTS assay for MDR1-selective chemotherapeutics: Primary screen using the parental adenocarcinoma cell KB-3-1; note: nearly all actives have a fitted effect of over 60% in size
# Conditions: KB-3-1 viability, CellTiter-Glo ATP luminescence, 72 h; series mostly up to 46.1 µM
# How it was run: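 Cells are dispensed, compounds pinned in, plates held at 37 °C for 72 h, then CellTiter-Glo is added and luminescence read after 10 minutes. Cell line: parental KB-3-1 in phenol-red-free DMEM, 10% FBS.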
# Potency is the fitted concentration of half-maximal effect.
row,SMILES,Potency
1,CCN1CCCC1CN(Cc1cc2ccc(C)cc2[nH]c1=O)C(=S)Nc1ccc(OC)cc1 (centres undefined),"inconclusive: 18.4 µM [cytotoxic, single point]"
2,O=C(c1cccs1)N1CCN(c2cccc(Cl)c2)CC1,inactive
3,CC(C)Oc1cc(F)ccc1-c1cc(C(=O)Nc2cccc(Cl)c2)[nH]n1,"inconclusive: 29.1 µM [cytotoxic, single point]"
4,O=S(=O)(c1ccc(Br)cc1Cl)N1CCCN(c2ccc(C(F)(F)F)cn2)CC1,"inconclusive: 23.1 µM [cytotoxic, single point]"
5,CCOc1ccc(NC(=O)Nc2cccn(Cc3ccccc3)c2=O)cc1,"inconclusive: 10.3 µM [cytotoxic, partial curve, poor fit]"
6,COC(=O)c1ccc(NC(=O)c2cccc(C)c2[N+](=O)[O-])cc1,inactive
7,COc1ccc(/C=N/NC(=O)c2c(C)nc3ccc(Br)cn23)cc1OC,inactive
8,COC(=O)C1CCN(C(=O)Cn2nnc(-c3cccc(F)c3)n2)CC1,inactive
9,O=[N+]([O-])c1cccc(-c2csc(N/N=C/c3cccc(O)c3)n2)c1,"inconclusive: 13 µM [rising, partial curve, poor fit]"
10,Cc1cc(C)cc(NC(=O)Nc2cccnc2)c1,inactive
11,N#CC1=C(c2ccccc2)/C(=C/c2ccccc2)OC1=O,"inconclusive: 23.1 µM [cytotoxic, single point]"
12,Cc1ccc(-n2c3nc(=O)[nH]c(=O)c-3cc3c(C)nn(-c4ccccc4)c32)cc1Cl,"inconclusive: 29.1 µM [cytotoxic, single point]"
13,O=S(=O)(c1ccc(Cl)cc1)c1snnc1-c1ccccc1,active: 5.8 µM
14,Cc1cc(C(=O)N2CCCC(N3CCN(c4cccc(C(F)(F)F)c4)CC3)C2)c(C)o1 (centres undefined),inactive
15,Cc1cc2ccccc2n1CCNC(=O)c1ccc(Br)o1,"inconclusive: 23.1 µM [cytotoxic, partial curve, poor fit]"
16,Cc1ccccc1OCCC(=O)N(Cc1ccccc1)c1c(N)n(Cc2ccccc2)c(=O)[nH]c1=O,"inconclusive: 18.4 µM [cytotoxic, single point]"
17,O=C(Nc1ccccc1Sc1ccccc1)c1cnn2c1NC(=C1CC1)C=C2C(F)F,"inconclusive: 23.1 µM [cytotoxic, partial curve, poor fit]"
18,COc1ccccc1CNC(=O)CCn1nc(C)c2c(C)n(-c3ccccc3)nc2c1=O,inactive
19,Cc1cc(NC(=S)NC(=O)/C=C/c2ccc(S(=O)(=O)N3CCOCC3)cc2)ccc1Br,"inconclusive: 29.1 µM [cytotoxic, single point]"

# Part of the list above, with bars between the fields:
row | SMILES | Potency
3 | CC(C)Oc1cc(F)ccc1-c1cc(C(=O)Nc2cccc(Cl)c2)[nH]n1 | inconclusive: 29.1 µM [cytotoxic, single point]
4 | O=S(=O)(c1ccc(Br)cc1Cl)N1CCCN(c2ccc(C(F)(F)F)cn2)CC1 | inconclusive: 23.1 µM [cytotoxic, single point]
